Reference: PubChem BioAssay AID330 (DTP/NCI, 2004)
The list shows only some results of the screen, not a fair sample: it gathers tests that were run many times, whatever their T/C, doses with no T/C, and many T/C values between a quarter and a half above the control. Other doses and runs of a compound stand elsewhere. T/C: endpoint of the treated group in % of that of the vehicle group. Some entries give survivors of the animals treated and no T/C: the source files T/C as zero there, which appears to mark a toxic dose or a test without result, not a measured value. Some survivor counts are full or nearly so, which does not show that the dose was tolerated: the source hardly ever lists a survival T/C far under the control, and the zero likely stands for such cases as well. Survivors were counted at the toxicity check, usually on the fifth day, unless a day is given; later deaths do not show. Schedule codes are those of the source, taken here to give the interval after Q, in days (D) or hours (H), and the number of doses after X. Some doses were run more than once; the values are given in rising order. For survival time, this PubChem deposit counts one and a half times the control or more as active, and values a quarter to a half above the control carry no call in these data; other NCI protocols may use other cut-offs. Some T/C values carry the count of animals alive at the toxicity check (mostly the fifth day); without a count, all were alive then.

Test system: P388 leukemia ip, CD2F1 mice, survival T/C
Test: NCI In Vivo Anticancer Drug Screen. Data for tumor model P388 Leukemia (intraperitoneal) in CD2F1 (CDF1) mice
Details: T/C endpoint: median survival time, higher T/C = longer survival
[1] = dose: 25.0 mg/kg/injection, schedule: Q01DX009 (ip), vehicle: saline with Tween-80
[2] = dose: 50.0 mg/kg/injection, schedule: Q01DX009 (ip), vehicle: saline with Tween-80
[3] = dose: 100.0 mg/kg/injection, schedule: Q01DX009 (ip), vehicle: saline with Tween-80
[4] = dose: 400.0 mg/kg/injection, schedule: Q01DX009 (ip), vehicle: saline with Tween-80
[5] = dose: 100.0 mg/kg/injection, schedule: Q01DX009 (ip), vehicle: Klucel (hydroxypropylcellulose) (HPC)
[6] = dose: 200.0 mg/kg/injection, schedule: Q01DX009 (ip), vehicle: saline
[7] = dose: 50.0 mg/kg/injection, schedule: Q01DX009 (ip), vehicle: Klucel (hydroxypropylcellulose) (HPC)
[8] = dose: 200.0 mg/kg/injection, schedule: Q01DX009 (ip), vehicle: Klucel (hydroxypropylcellulose) (HPC)
[9] = dose: 200.0 mg/kg/injection, schedule: Q01DX009 (ip), vehicle: saline with Tween-80

Q: `N#CCC(=O)N/N=C(\CC1(O)C(=O)Nc2c(Cl)cc(Cl)cc21)c1cccc2ccccc12` (centres undefined) was tested. Which survivor count (dose: 50.0 mg/kg/injection, schedule: Q01DX005 (ip), vehicle: saline with Tween-80) did it give?
A: 6 of 6

Q: What about the survivor count (dose: 200.0 mg/kg/injection, schedule: Q01DX005 (ip), vehicle: saline with Tween-80) of the same molecule?
A: 5 of 6

Q: For `COc1ccc(Cl)cc1NC(=O)Oc1ccncc1`, which survivor count (dose: 6.25 mg/kg/injection, schedule: Q01DX009 (ip), vehicle: saline with Tween-80) is on record?
A: 6 of 6

Q: What about the survivor count (dose: 12.5 mg/kg/injection, schedule: Q01DX009 (ip), vehicle: saline with Tween-80) of the same molecule?
A: 6 of 6

Q: What about the survivor count [1] of the same molecule?
A: 5 of 6 and 6 of 6

Q: What about the survivor count [2] of the same molecule?
A: 6 of 6

Q: What about the survivor count [3] of the same molecule?
A: 6 of 6

Q: With `NC(CO)(CO)CO` as the molecule, how does the survivor count (dose: 3200.0 mg/kg/injection, schedule: Q01DX007 (ip), vehicle: saline) read?
A: 0 of 5

Q: How did the survivor count (dose: 5.0 mg/kg/injection, schedule: Q01DX005 (ip), vehicle: Klucel (hydroxypropylcellulose) (HPC)) turn out when `COCC1(CCC(C)=C(C)C)Nc2ccc(C(=O)O)cc2CC1Cl` (centres undefined) was run?
A: 6 of 6

Q: And the survivor count (dose: 10.0 mg/kg/injection, schedule: Q01DX005 (ip), vehicle: Klucel (hydroxypropylcellulose) (HPC))?
A: 3 of 6

Q: For `CCOc1ccc(/C=N/NC(=S)NC23CC4CC(CC(C4)C2)C3)cc1OCC`, which survivor count (dose: 120.0 mg/kg/injection, schedule: Q01DX005 (ip), vehicle: saline with Tween-80) is on record?
A: 6 of 6

Q: What about the survivor count (dose: 240.0 mg/kg/injection, schedule: Q01DX005 (ip), vehicle: saline with Tween-80) of the same molecule?
A: 5 of 6

Q: How did the T/C (dose: 0.75 mg/kg/injection, schedule: Q01DX009 (ip), vehicle: saline with Tween-80) turn out when `CC[C@@]1(O)C(=O)OCc2c1cc1n(c2=O)Cc2cc3c(OC)cccc3nc2-1` was run?
A: 149 % of control

Q: What about the T/C (dose: 0.79 mg/kg/injection, schedule: Q04DX003 (ip), vehicle: other) of the same molecule?
A: 128 % of control

Q: And the T/C (dose: 1.57 mg/kg/injection, schedule: Q04DX003 (ip), vehicle: other)?
A: 136 % of control

Q: What about the survivor count (dose: 12.5 mg/kg/injection, schedule: Q04DX003 (ip), vehicle: other) of the same molecule?
A: 1 of 6

Q: How did the T/C (dose: 264.0 mg/kg/injection, schedule: Q01DX009 (ip), vehicle: saline with Tween-80) turn out when `CC(=O)Oc1ccc[nH]c1=O` was run?
A: 127 % of control

Q: And the T/C (dose: 300.0 mg/kg/injection, schedule: Q01DX009 (ip), vehicle: saline)?
A: 145 % of control

Q: What about the T/C [4] of the same molecule?
A: 131 and 140 % of control

Q: And the T/C (dose: 400.0 mg/kg/injection, schedule: Q01DX009 (ip), vehicle: saline)?
A: 142 % of control

Q: What about the survivor count (dose: 600.0 mg/kg/injection, schedule: Q01DX009 (ip), vehicle: saline) of the same molecule?
A: 5 of 6

Q: What about the survivor count (dose: 800.0 mg/kg/injection, schedule: Q01DX009 (ip), vehicle: saline sonified) of the same molecule?
A: 4 of 6

Q: And the survivor count (dose: 1000.0 mg/kg/injection, schedule: Q01DX009 (ip), vehicle: saline sonified)?
A: 1 of 6

Q: And the survivor count (dose: 1200.0 mg/kg/injection, schedule: Q01DX009 (ip), vehicle: saline sonified)?
A: 0 of 6

Q: `COc1ccc(N2C(=O)/C(=C/c3ccccc3)N=C2/C=C/c2ccc(Cl)cc2)cc1` was tested. Which survivor count (dose: 120.0 mg/kg/injection, schedule: Q01DX005 (ip), vehicle: Klucel + Tween-80) did it give?
A: 2 of 6

Q: What about the survivor count (dose: 240.0 mg/kg/injection, schedule: Q01DX005 (ip), vehicle: Klucel + Tween-80) of the same molecule?
A: 3 of 6

Q: How did the survivor count (dose: 400.0 mg/kg/injection, schedule: Q01DX001 (ip), vehicle: other) turn out when `FC(F)(F)c1ssc1C(F)(F)F` was run?
A: 2 of 6

Q: How did the survivor count (dose: 40.0 mg/kg/injection, schedule: Q01DX009 (ip), vehicle: saline) turn out when `COc1cc2c(cc1OC)C[N+]1(C)CCc3cc(OC)c(OC)cc3C1C2` (centres undefined) was run?
A: 2 of 6

Q: What does the source list for `[NH-]CC(=O)O.[NH-]CC(=O)O.[Pt+2]`?
A: T/C (dose: 25.0 mg/kg/injection, schedule: Q01DX009 (ip), vehicle: distilled water + Tween-80): 126 % of control; T/C (dose: 50.0 mg/kg/injection, schedule: Q01DX009 (ip), vehicle: water): 133 % of control; T/C (dose: 100.0 mg/kg/injection, schedule: Q01DX009 (ip), vehicle: water): 138 % of control; survivor count (dose: 400.0 mg/kg/injection, schedule: Q01DX009 (ip), vehicle: distilled water + Tween-80): 6 of 6

Q: How did the survivor count [5] turn out when `CC1C(c2ccccc2)OCCN1C(=S)Nc1ccc(S(=O)(=O)N2CCCCC2)cc1` (centres undefined) was run?
A: 5 of 6

Q: Which survivor count (dose: 200.0 mg/kg/injection, schedule: Q01DX005 (ip), vehicle: Klucel (hydroxypropylcellulose) (HPC)) does the source give for `CCOc1nc2ccccc2nc1OCC` here?
A: 5 of 5

Q: Which results are given for `CCCCCCCCOCC(O)CN(CCO)CCO` (centres undefined)?
A: survivor count (dose: 100.0 mg/kg/injection, schedule: Q01DX009 (ip), vehicle: saline): 5 of 6; survivor count [6]: 0 of 6

Q: With `Cc1nc(N)nc(N)c1CCCc1ccccc1` as the molecule, how does the survivor count (dose: 25.0 mg/kg/injection, schedule: Q01DX001 (ip), vehicle: saline) read?
A: 0 of 6

Q: What about the survivor count (dose: 50.0 mg/kg/injection, schedule: Q01DX001 (ip), vehicle: saline) of the same molecule?
A: 0 of 6

Q: `CSc1cccc(NC(=O)OCCOc2ccc(-c3ccccc3)cc2)c1` was tested. Which survivor count [7] did it give?
A: 6 of 6

Q: What about the survivor count [8] of the same molecule?
A: 6 of 6

Q: How did the T/C (dose: 0.31 mg/kg/injection, schedule: Q01DX009 (ip), vehicle: Klucel (hydroxypropylcellulose) (HPC)) turn out when `COc1cc2c(c(OC)c1OC)-c1ccc(OC)c(=O)cc1[C@@H](N(C)C(=O)C(F)(F)F)CC2` was run?
A: 126 % of control

Q: What about the T/C (dose: 0.62 mg/kg/injection, schedule: Q01DX009 (ip), vehicle: Klucel (hydroxypropylcellulose) (HPC)) of the same molecule?
A: 135 and 139 % of control

Q: What about the survivor count (dose: 2.5 mg/kg/injection, schedule: Q01DX009 (ip), vehicle: Klucel (hydroxypropylcellulose) (HPC)) of the same molecule?
A: 5 of 6 and 6 of 6

Q: And the survivor count (dose: 5.0 mg/kg/injection, schedule: Q01DX009 (ip), vehicle: Klucel (hydroxypropylcellulose) (HPC))?
A: 3 of 6

Q: And the survivor count (dose: 10.0 mg/kg/injection, schedule: Q01DX009 (ip), vehicle: Klucel (hydroxypropylcellulose) (HPC))?
A: 0 of 6

Q: `Cc1cc(C)c(CCl)c(C)c1CCl` was tested. Which T/C (dose: 6.25 mg/kg/injection, schedule: Q01DX009 (ip), vehicle: Klucel (hydroxypropylcellulose) (HPC)) did it give?
A: 132 % of control

Q: And the T/C (dose: 12.5 mg/kg/injection, schedule: Q01DX009 (ip), vehicle: Klucel (hydroxypropylcellulose) (HPC))?
A: 133 and 139 % of control

Q: And the T/C (dose: 25.0 mg/kg/injection, schedule: Q01DX009 (ip), vehicle: Klucel (hydroxypropylcellulose) (HPC))?
A: 138 % of control

Q: And the T/C [7]?
A: 125 % of control

Q: What about the survivor count [7] of the same molecule?
A: 2 of 3 and 5 of 6

Q: What about the survivor count [5] of the same molecule?
A: 0 of 3

Q: What about the survivor count [8] of the same molecule?
A: 0 of 3 and 6 of 6

Q: For `O=C1NC(=O)C(=Cc2cc3c(cc2Br)OCO3)C(=O)N1`, which T/C [9] is on record?
A: 125 % of control

Q: What about the survivor count [9] of the same molecule?
A: 4 of 6

Q: What about the survivor count (dose: 300.0 mg/kg/injection, schedule: Q01DX009 (ip), vehicle: saline with Tween-80) of the same molecule?
A: 2 of 6

Q: What about the survivor count (dose: 400.0 mg/kg/injection, schedule: Q01DX009 (ip), vehicle: Klucel (hydroxypropylcellulose) (HPC)) of the same molecule?
A: 4 of 6

Q: What about the survivor count [4] of the same molecule?
A: 0 of 6

Q: For `CC1(C)CC2=NO[Se]3=C2C(=NO3)C1`, which survivor count [1] is on record?
A: 0 of 6

Q: And the survivor count [2]?
A: 6 of 6

Q: What about the survivor count [3] of the same molecule?
A: 2 of 6

Q: And the survivor count [9]?
A: 0 of 6

Q: How did the survivor count (dose: 400.0 mg/kg/injection, schedule: Q04DX002 (ip), vehicle: saline with Tween-80) turn out when `CC1C(C)(C)P(C)(=O)C1(C)C` (centres undefined) was run?
A: 0 of 6

Q: `CC(C)(C)C(=O)CP(=O)(O)O` (tested in a mixture with another compound) was tested. Which survivor count [6] did it give?
A: 0 of 6

Q: `COCCCNC(=S)N/N=C/c1cc(Cl)cc(Cl)c1O` was tested. Which survivor count [1] did it give?
A: 6 of 6

Q: What about the survivor count [2] of the same molecule?
A: 5 of 6

Q: And the survivor count [3]?
A: 6 of 6

Q: How did the T/C (dose: 6.25 mg/kg/injection, schedule: Q01DX009 (ip), vehicle: saline) turn out when `CCCS(=O)(=O)Nc1ccc(Nc2c3ccccc3nc3ccccc23)c(OC)c1` was run?
A: 126 % of control [5 of 6 alive]

Q: What about the T/C (dose: 12.5 mg/kg/injection, schedule: Q01DX009 (ip), vehicle: saline) of the same molecule?
A: 129 and 136 % of control

Q: And the T/C (dose: 50.0 mg/kg/injection, schedule: Q01DX009 (ip), vehicle: saline)?
A: 129 % of control
